Test system: vascularized proximal tubule kidney (VPTK) module
Test: Vascularized proximal tubule kidney (VPTK) module secretion
Conditions: terfenadine experiment, liver-conditioned media; 0-6 h

- Concentration in kidney plasma (vascular) efflux: 10.2 ± 3.6 ng/mL
- Concentration in kidney proximal tubule lumen: 0.1 ± 0.1 ng/mL
Structure (SMILES): CC(C)(C(=O)O)c1ccc(C(O)CCCN2CCC(C(O)(c3ccccc3)c3ccccc3)CC2)cc1 (centres unmarked) [Fexofenadine, fexofenadine, reference compound]
